# Test results published in article PMC4778017.
# The chains behind the UniProt entries cited, without tags or fusion partners. Where a name states a change or a piece, a line headed by the entry shows the natural chain unless it says otherwise. A line that says so, or that is headed by a name, gives the form on record, which may keep a tag or linker.
# chicken β-sarcoglycan (A0A8V0YPW9, form named): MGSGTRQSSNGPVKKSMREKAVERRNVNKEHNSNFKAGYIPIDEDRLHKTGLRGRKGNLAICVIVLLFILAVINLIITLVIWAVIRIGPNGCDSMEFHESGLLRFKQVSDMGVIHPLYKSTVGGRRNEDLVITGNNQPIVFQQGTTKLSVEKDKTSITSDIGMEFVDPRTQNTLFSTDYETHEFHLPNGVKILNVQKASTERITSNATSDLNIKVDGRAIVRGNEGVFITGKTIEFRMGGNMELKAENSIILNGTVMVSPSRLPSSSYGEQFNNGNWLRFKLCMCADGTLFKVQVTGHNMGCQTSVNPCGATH
# No constants are given. Whether binding was seen depends on the method and setting. Some results given as binding are weak or reduced against the parent protein; the word gives no strength.
# T1: chicken BetaM (chicken) (UniProt Q2HZ96)
# T1 sequence: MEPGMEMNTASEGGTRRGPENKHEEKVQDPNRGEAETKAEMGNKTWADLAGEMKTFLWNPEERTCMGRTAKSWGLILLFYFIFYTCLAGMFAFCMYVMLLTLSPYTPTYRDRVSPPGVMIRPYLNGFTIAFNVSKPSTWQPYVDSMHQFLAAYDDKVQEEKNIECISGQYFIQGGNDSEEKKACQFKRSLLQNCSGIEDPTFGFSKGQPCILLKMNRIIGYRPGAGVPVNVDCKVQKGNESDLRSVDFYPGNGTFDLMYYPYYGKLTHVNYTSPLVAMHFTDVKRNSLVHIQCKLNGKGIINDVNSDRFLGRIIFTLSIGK
# T2: full-length mouse BetaM (ATP1B4), GAL4 DNA binding domain bait (mouse) (UniProt Q99ME6)
# T2 sequence: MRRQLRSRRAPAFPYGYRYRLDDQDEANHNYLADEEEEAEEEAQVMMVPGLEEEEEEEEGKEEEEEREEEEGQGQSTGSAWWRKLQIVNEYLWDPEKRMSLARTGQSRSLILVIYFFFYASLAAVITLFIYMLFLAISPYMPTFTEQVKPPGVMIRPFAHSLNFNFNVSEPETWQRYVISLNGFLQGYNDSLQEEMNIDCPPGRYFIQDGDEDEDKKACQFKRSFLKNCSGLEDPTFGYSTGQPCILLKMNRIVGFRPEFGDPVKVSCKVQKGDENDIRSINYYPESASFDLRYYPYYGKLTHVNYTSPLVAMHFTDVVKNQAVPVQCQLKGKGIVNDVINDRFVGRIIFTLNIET
# Tests used:
# [1] = molecular target: T1, chicken BetaM (chicken); assay: two-hybrid; chicken homologs of the interactors tested cross-wise with chicken and mouse BetaM and the mouse interactors, by the criteria of the library screening
# [2] = molecular target: T2, full-length mouse BetaM (ATP1B4), GAL4 DNA binding domain bait (mouse); assay: two-hybrid; GAL4 yeast two-hybrid screen of a pretransformed 17 day mouse embryo cDNA library (Y187) with full-length mouse BetaM bait in AH109; mating, SD/-Trp/-Leu/-His 5 days at 30 °C, then SD/-Ade/-Trp/-Leu/-His with α-X-Gal; confirmed by co-transformation and mating with isolated prey plasmids
Molecule,binding [1],binding [2]
chicken β-sarcoglycan (from UniProt A0A8V0YPW9 1-313),binds,–
"PHF3 prey, residues 168-397 (N-term. truncated) (domain or fragment, UniProt B2RQG2 168-397) SKVGVKPAERCQGKEEVYASLKSEHPKESRRSGRHAEQMDVAPEVSASSVDSSVSSCAGMKEEAEFDPKHACNNQGEVNVPSPELDCPLLSETSASVEEKNIEALMECKAKTNSSPLFKFPVREDEQSDLVSGELNDTIEGKDAGGKPDQESEEVKFPCEGDQTAEEPESSDVSSDSACANKNKAEKNEGAECHLELKNTVDIVDKPENSPQRNELETLGYGEDTESNDA",–,binds
"LZIP/CREB3 prey, residues 226-402 (domain or fragment, UniProt Q61817 226-402) ELQNKVQRLEEQNLSLLDQLRKLQAMVIEIANKTSSGSTCVLVLVFSFCLLLVPAMYSSDARGSVPAEYVVLHRKLRALPSEDDHQPKPSALSSELPMDSTHQSLDSSEHMFLVSSNFSCVLYHAPQAEQPLHWPLWDLSSEMLFSDSNLLLQANLSESEGWQPNHSPSLVIFQGRY",–,binds
"Reticulocalbin 3/RCN3 prey (protein, UniProt Q8BH97 1-328) MMWRWSFLLLLLLLRHWALGKPSPDAGPHGQDRVHHGTPLSEAPHDDAHGNFQYDHEAFLGRDVAKEFDKLSPEESQARLGRIVDRMDLAGDSDGWVSLAELRAWIAHTQQRHIRDSVSAAWHTYDTDRDGRVGWEELRNATYGHYEPGEEFHDVEDAETYKKMLARDERRFRVADQDGDSMATREELTAFLHPEEFPHMRDIVVAETLEDLDKNKDGYVQVEEYIADLYSEEPGEEEPAWVQTERQQFREFRDLNKDGRLDGSEVGYWVLPPSQDQPLVEANHLLHESDTDKDGRLSKAEILSNWNMFVGSQATNYGEDLTRHHDEL",–,binds
"Heme oxidase 2/HMOX2 prey (protein, UniProt O70252 1-315) MSSEVETSEGVDESEKNSMAPEKENHTKMADLSELLKEGTKEAHDRAENTQFVKDFLKGNIKKELFKLATTALYFTYSALEEEMDRNKDHPAFAPLYFPTELHRKAALIKDMKYFFGENWEEQVKCSEAAQKYVDRIHYVGQNEPELLVAHAYTRYMGDLSGGQVLKKVAQRALKLPSTGEGTQFYLFEHVDNAQQFKQFYRARMNALDLNLKTKERIVEEANKAFEYNMQIFSELDQAGSMLARETLEDGLPVHDGKGDIRKCPFYAAQPDKGTLGGSNCPFQTTVAVLRKPSLQLILAASVALVAGLLAWYYM",–,binds
